Measured values taken from PubChem BioAssay AID504834 (National Center for Advancing Translational Sciences (NCATS), 2011).
In all, about 320,000 compounds went through this assay and about 22,000 (6.9%) were called active. Inconclusive results, whose numbers are uncertain, are shown with a selection of clear calls. The call rests on the fitted dose curve; in most records, active means well fitted inhibition curve with a large enough effect; inconclusive means small, poorly fitted or top-dose-only effect, or another doubt; inactive means no such curve, though single readings can be large or run the other way. Potencies of inconclusive entries are doubtful fits and often do not repeat.
On the % scale 0 is the no-effect control and ±100 the full control effect; potency means the concentration at half of the fitted maximal effect.

Experiment: Primary qHTS for delayed death inhibitors of the malarial parasite plastid, 96 hour incubation
Conditions: P. falciparum luciferase reporter growth; series mostly up to 28.7 µM; activity change, negative = inhibition: at the top concentration
Procedure, shortened: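 Parasite growth measured via integrated firefly luciferase reporter in P. falciparum. Infected erythrocytes at 2% hematocrit, 0.05% parasitemia final were treated 96 hours at 37 C under 5% CO2, and luminescence was read.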
In the case of `CN(C)C(=O)Oc1cc(=O)n2c3c(cccc13)CCC2`, the Potency is reported as inconclusive: 8.28 µM [inhibitor, partial curve, poor fit].
In the case of `Cc1ccc(SCCNC(=O)c2ccc(C)c(S(=O)(=O)Nc3ccccc3C)c2)cc1`, the “activity change, negative = inhibition” value is reported as inactive: -23.1%.
For `Cc1cc(Cl)ccc1OCC(=O)N[C@@H](Cc1ccccc1)c1nc2ccccc2[nH]1`, the Potency was inconclusive: 18.5 µM [inhibitor, single point].
In the case of `CCn1cnc2c1c(=O)n(Cc1ccc(C(=O)OC)cc1)c(=O)n2Cc1ccccc1`, the Potency is reported as inconclusive: 9.28 µM [inhibitor, partial curve].
With `Cc1ccc(C(=O)Nc2ccc3c(c2)OCO3)cc1S(=O)(=O)N1CCCC1` the “activity change, negative = inhibition” value was inactive: 15.3%.
With `CC(C)(C)c1ccc(C(=O)NCC(=O)N/N=C/c2ccccc2OCC(=O)O)cc1` the “activity change, negative = inhibition” value was inactive: 13.1%.
In the case of `Cc1cccc(C(=O)N[C@H](C(=O)Nc2cc(S(=O)(=O)N3CCCCC3)ccc2C)C(C)C)c1`, the Potency is reported as inconclusive: 18.5 µM [inhibitor, single point].
In the case of `COCCNC(=O)COc1ccc(C)cc1C(=O)c1cc(C#N)c(=O)n(C2CC2)c1`, the “activity change, negative = inhibition” value is reported as inactive: -0.426%.
For `Cn1c2ccccc2c(=O)c2ccc(C#CC3(O)CCCCC3)cc21`, the “activity change, negative = inhibition” value was inactive: -61.3%.
With `COc1ccc(S(=O)(=O)NCC(c2ccc(C)cc2)N2CCN(C)CC2)cc1OC` (centres undefined) the “activity change, negative = inhibition” value was inactive: -10.3%.
For `CC(C)(C)NC(=O)C(c1cccnc1)N(C(=O)c1ccc(Cl)nc1)C1CCCC1` (centres undefined), the Potency was inconclusive: 13.1 µM [inhibitor, partial curve, poor fit].
With `O=C(CN1C(=O)S/C(=C\c2ccccc2)C1=O)NCCCn1ccnc1` the Potency was inconclusive: 13.1 µM [inhibitor, single point].
With `O=C(Cc1ccc(-n2cccc2)cc1)NCc1ccccc1Cl` the Potency was inconclusive: 18.5 µM [inhibitor, single point].
In the case of `Fc1ccccc1OCC1CCCN(Cc2nc(CC3CC3)no2)C1` (centres undefined), the Potency is reported as inconclusive: 13.1 µM [inhibitor, partial curve].
In the case of `CCOC(=O)c1cn2nc(Oc3ccccc3)ccc2n1`, the “activity change, negative = inhibition” value is reported as inactive: 128%.
In the case of `COc1ccc(C(F)(F)F)cc1N/C=C/c1nnnn1-c1ccc(C)cc1`, the Potency is reported as inconclusive: 14.7 µM [inhibitor, partial curve, poor fit].
With `S=C(NCc1ccco1)N1CCN(Cc2ccc(Cl)cc2Cl)CC1` the Potency was active: 10.4 µM.
In the case of `CCOc1ccccc1NC(=O)CN1CCC(NC(=O)c2ccccc2C)CC1`, the Potency is reported as inconclusive: 11.7 µM [inhibitor, partial curve, poor fit].
For `COc1cc(C(=O)O)nc(OC)n1`, the Potency was inconclusive: 14.7 µM [inhibitor, partial curve].
In the case of `Cc1c(C(=O)Nn2cnnc2)oc2ccccc12`, the Potency is reported as inconclusive: 4.15 µM [inhibitor, partial curve].
With `Cn1c(=O)c2[nH]c(SCc3ccccn3)nc2n(C)c1=S` the Potency was inconclusive: 2.94 µM [inhibitor, full curve].
With `O=C(Nc1ccccc1)OCCNC(=O)c1ccccc1` the Potency was inconclusive: 18.5 µM [inhibitor, single point].
For `CCCn1c(N)c(C(=O)CSc2nc3ccccc3c(=O)n2Cc2ccccc2)c(=O)[nH]c1=O`, the Potency was inconclusive: 0.0928 µM [inhibitor, full curve, poor fit].
For `Cc1cc(C(=O)N/N=C/c2ccc([N+](=O)[O-])cc2)c2ccccc2n1`, the “activity change, negative = inhibition” value was inactive: -16.2%.
With `COc1ccc(CCn2nc(C)c([N+](=O)[O-])c2C)cc1` the Potency was inconclusive: 16.5 µM [inhibitor, single point].
In the case of `O=C1Nc2ccccc2Oc2cc([N+](=O)[O-])cc(Oc3ccccc3)c21`, the Potency is reported as inconclusive: 18.5 µM [inhibitor, single point].
With `CCOc1ccc(CCNC(=O)c2ccc(S(=O)(=O)N3CCCC3)cc2)cc1OCC` the Potency was inconclusive: 2.62 µM [inhibitor, full curve, poor fit].
In the case of `CC1(C)CC(=O)C(=CN2CCN(C(=O)c3ccco3)CC2)C(=O)C1`, the Potency is reported as inconclusive: 0.0029 µM [inhibitor, full curve, poor fit].
For `N#Cc1c(C(F)(F)F)cc(-c2ccccc2)nc1SCC(=O)N1CCOCC1`, the “activity change, negative = inhibition” value was inactive: 20.9%.
For `Cc1ccc(NS(=O)(=O)c2cc(-c3cc(C)no3)ccc2C(C)C)nc1`, the “activity change, negative = inhibition” value was inactive: -29.2%.
For `Cc1ccc(-c2cc(C(=O)NCC3CCCO3)c3ccccc3n2)cc1C` (centres undefined), the Potency was inconclusive: 18.5 µM [inhibitor, partial curve, poor fit].
For `O=C(Nc1ccccc1C(F)(F)F)NC1CCCCCCC1`, the Potency was inconclusive: 1.31 µM [inhibitor, full curve, poor fit].
With `Brc1ccc(-c2nc(-c3ccccn3)no2)o1` the Potency was inconclusive: 18.5 µM [inhibitor, single point].
For `CC(C)CN1C2CCCC1CC(NC(=S)NCc1ccco1)C2` (centres undefined), the “activity change, negative = inhibition” value was inactive: -29.1%.
In the case of `CC1CCN(C(=O)CN(CCc2ccccc2)S(C)(=O)=O)CC1`, the Potency is reported as inconclusive: 18.5 µM [inhibitor, single point].
With `COC(=O)c1cc(-c2cc(OC)ccc2OC)nc2c1c(=O)n(C)c(=O)n2Cc1ccccc1` the Potency was active: 2.08 µM.
For `O=C(CC1C(=O)NCCN1C(=O)c1ccccc1)Nc1cc(Cl)ccc1Cl` (centres undefined), the “activity change, negative = inhibition” value was inactive: 23.1%.
With `CCOC(=O)c1c(C2CCN(C(=O)OCC)CC2)nc2ccccn12` the Potency was active: 5.22 µM.
In the case of `COc1ccc(CN2CCN(Cc3ccccc3)CC2)c(OC)c1`, the “activity change, negative = inhibition” value is reported as inactive: 107%.
For `CCN(CC)S(=O)(=O)c1cccc(NC(=O)c2ccccc2Br)c1`, the Potency was inconclusive: 18.5 µM [inhibitor, single point].
In the case of `CCOC(=O)c1ccc(NC(=O)COc2ccc(CNCCO)cc2OCC)cc1`, the Potency is reported as inconclusive: 1.17 µM [inhibitor, single point].
With `CC12CC3(C)CC(C)(C1)CC(C(=O)Nc1nn[nH]n1)(C2)C3` the Potency was inconclusive: 10.4 µM [inhibitor, single point].
In the case of `CCOc1ccccc1N(CC(=O)NC1CCCC1)C(=O)CCCC(=O)Nc1ccccn1`, the Potency is reported as inconclusive: 13.1 µM [inhibitor, single point].
For `CCCN(CC(=O)Nc1cccc(Br)c1)CC(=O)Nc1ccc(F)c(F)c1F`, the Potency was active: 3.7 µM.
In the case of `CCOc1ccc(NC(=O)c2cc3cc4ccc(OC)cc4nc3o2)cc1`, the Potency is reported as active: 5.22 µM.
With `COc1ccccc1NC(=O)C1=C(C)Nc2nc(-c3cccs3)nn2C1c1cccc(O)c1` (centres undefined) the Potency was inconclusive: 1.31 µM [inhibitor, single point].
In the case of `OC(CCCCN1CCCCC1)c1ccccc1` (centres undefined), the Potency is reported as inconclusive: 18.5 µM [inhibitor, single point].
With `O=C(c1ccc(F)cc1)N(Cc1cccs1)C1CCS(=O)(=O)C1` (centres undefined) the Potency was inconclusive: 18.5 µM [inhibitor, partial curve, poor fit].
In the case of `Cc1cc(C)c2c(N)c(C(=O)Nc3ccc(F)cc3)sc2n1`, the Potency is reported as inconclusive: 0.586 µM [inhibitor, full curve, poor fit].
In the case of `O=C(C1CC(=O)N(c2ccc(Br)cc2)C1)N1CCCC1` (centres undefined), the Potency is reported as inconclusive: 8.28 µM [inhibitor, partial curve].
With `COc1ccc(C(=O)NN(C)c2nc(C(F)(F)F)nc3ccccc23)cc1` the Potency was inconclusive: 5.22 µM [inhibitor, partial curve, poor fit].
In the case of `Cc1nn(Cc2n[nH]c(=S)n2Cc2ccccc2)c(C)c1Cl`, the “activity change, negative = inhibition” value is reported as inactive: 3.1%.
With `CCOC(=O)CN=C/C(C(=O)Nc1nccs1)=C(/C)O` the “activity change, negative = inhibition” value was inactive: -7.1%.
In the case of `COc1cccc(C(=O)CC(=O)C(=O)Nc2cccc([N+](=O)[O-])c2C)c1`, the Potency is reported as inconclusive: 9.28 µM [inhibitor, partial curve, poor fit].
For `Cc1cc(C)cc(OCC(=O)NNC(=O)C2CCCO2)c1` (centres undefined), the Potency was inconclusive: 0.0738 µM [inhibitor, full curve, poor fit].
For `CC(CCc1ccccc1)NC(=O)COC(=O)c1cccs1` (centres undefined), the “activity change, negative = inhibition” value was inactive: 32.5%.
With `CN(C)c1cccc(C(=O)OCC(=O)Nc2ccccc2Sc2ccccc2)c1` the Potency was inconclusive: 14.7 µM [inhibitor, partial curve, poor fit].
With `CC(=O)c1cc(C(c2csc(C(C)=O)c2)c2csc(C(C)=O)c2)cs1` the Potency was inconclusive: 9.28 µM [inhibitor, single point].
For `Cc1ccc(S(=O)(=O)NCCC(=O)NCC(c2cccs2)N2CCOCC2)cc1` (centres undefined), the “activity change, negative = inhibition” value was inactive: -1.38%.
In the case of `Fc1cccc(Cc2noc(CN3CCCCC3c3ccccn3)n2)c1` (centres undefined), the Potency is reported as active: 8.28 µM.
For `COc1ccccc1/C=C/C(=O)c1c2c(c(C)[nH]c1=O)CCCC2`, the Potency was inconclusive: 1.31 µM [inhibitor, full curve, poor fit].
With `COc1ccc(-c2nnn(CC(=O)N(C3CCCC3)C(C)C(=O)NC3CCCC3)n2)cc1OC` (centres undefined) the Potency was inconclusive: 0.0828 µM [inhibitor, full curve, poor fit].
With `Cc1nccn1CC(O)COc1ccc(Cl)cc1Cl` (centres undefined) the Potency was inconclusive: 18.5 µM [inhibitor, single point].
In the case of `CCOc1ccc(-c2cc(C)[n+](CCN3CCOCC3)c(-c3ccc(OCC)cc3)c2)cc1`, the Potency is reported as active: 0.37 µM.
With `O=[N+]([O-])c1ccc(CSc2ncnc3c2ncn3[C@@H]2O[C@H](CO)[C@@H](O)[C@H]2O)cc1` the Potency was inconclusive: 9.28 µM [inhibitor, single point].
With `COc1ccc(Cn2c(=O)oc3ccc(C)cc32)cc1` the Potency was inconclusive: 3.7 µM [inhibitor, partial curve, poor fit].
In the case of `N#Cc1c(SCc2ccccc2)sc(C(=O)c2ccccc2)c1N`, the Potency is reported as inconclusive: 0.131 µM [inhibitor, full curve, poor fit].
With `O=C(c1ccc(Cn2cc(Cl)cn2)o1)N1CCN(Cc2ccc3c(c2)OCO3)CC1` the Potency was active: 13.1 µM.
With `O=c1sc(Nc2ccccc2)nc2ccsc12` the Potency was inconclusive: 3.7 µM [inhibitor, partial curve].
